These are yes or no findings as the source states them, for the method shown. In cells and extracts the contact can be indirect. Here binding means that the protein was enriched with, or labelled near, the bait; the list need not be complete.
T1: Pex18-TPA (S. cerevisiae) (UniProt P38855)
T1 sequence: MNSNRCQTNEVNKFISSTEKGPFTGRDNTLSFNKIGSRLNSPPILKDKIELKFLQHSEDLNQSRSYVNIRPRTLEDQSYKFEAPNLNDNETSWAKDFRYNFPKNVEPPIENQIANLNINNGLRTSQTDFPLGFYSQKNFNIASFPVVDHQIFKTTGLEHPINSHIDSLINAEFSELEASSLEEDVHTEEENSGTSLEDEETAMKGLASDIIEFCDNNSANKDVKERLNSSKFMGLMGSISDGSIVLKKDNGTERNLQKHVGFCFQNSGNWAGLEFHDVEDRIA

Chains of the proteins cited; added tags and fusions are not shown. Lines headed by an entry give the natural chain unless they say otherwise; changes in a name come on top.
UniProt P27796: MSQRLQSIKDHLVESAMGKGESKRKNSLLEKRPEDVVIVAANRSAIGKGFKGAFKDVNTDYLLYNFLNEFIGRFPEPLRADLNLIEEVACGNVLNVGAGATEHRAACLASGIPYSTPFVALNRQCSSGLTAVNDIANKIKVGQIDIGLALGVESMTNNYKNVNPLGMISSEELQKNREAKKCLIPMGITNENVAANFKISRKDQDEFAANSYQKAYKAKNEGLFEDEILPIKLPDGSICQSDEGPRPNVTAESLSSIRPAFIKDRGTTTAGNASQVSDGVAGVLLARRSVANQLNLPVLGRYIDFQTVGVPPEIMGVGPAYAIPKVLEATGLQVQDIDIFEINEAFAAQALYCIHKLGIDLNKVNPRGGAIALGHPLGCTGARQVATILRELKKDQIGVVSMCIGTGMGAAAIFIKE


Molecular target: T1, Pex18-TPA (S. cerevisiae)
Test: affinity purification with mass spectrometry

binding | Molecule
binds | peroxisomal 3-ketoacyl-CoA thiolase (Pot1) (from UniProt P27796) (enzyme)
binds | Pex7 (S. cerevisiae) (receptor, UniProt P39108 1-375) MLRYHMQGFSGYGVQYSPFFDNRLAVAAGSNFGLVGNGKLFILEIDRSGRIVEVNSFLTQDCLFDLAWNESHENQVLVAQGDGTLRLFDTTFKEFPIAIFKEHEREVFSCNWNLVNRQNFLSSSWDGSIKIWSPLRKQSLMTLTPRPLEITKMVDPLNAIILKKKSFTGISKNRNCVYQAQFSPHDQNLVLSCSGNSYASLFDIRLPSGKNQNNFLVHSGLEALTCDFNKYRPYVVATGGVDNAIRIWDIRMLNKNESATIKRTVPGQLHNSSCINEIPNAHGLAIRKVTWSPHHSNILMSASYDMTCRIWRDLSNDGAKETYKTNSTDATKGSIFNFTQHSEFVFGADWSLWGKPGYVASTAWDGNLFVWNGLG
binds | ScPex39 (protein, UniProt P47087 1-132) MAAGGELSYEELLDHILNNKPIPNIVEVPNVTLDEGLASTPSLRPRPRPWEGQLQHQSHQGSLDKPNISLDIDQESLEGMTSLTRLSECYDIQSKLQINDSDNDNDDNNNDNNKGDGNDDDNNTVTANPTAR
